Experiment: GC volatiles analysis of ripe fruit, introgression line 8-2-1 vs control M82
Parameters: species or system tomato
Settings: for Level in 8-2-1 ripe fruit relative to M82 fruit: GC on DB5 column; for Level in 8-2-1 ripe fruit compared with control M82 fruit: GC profiles

| SMILES | Level in 8-2-1 ripe fruit relative to M82 fruit | Level in 8-2-1 ripe fruit compared with control M82 fruit |
| --- | --- | --- |
| OCCc1ccccc1 [2-Phenylethanol] | approximately 250 × | higher levels |
| O=CCc1ccccc1 [Phenylacetaldehyde, reference compound] | approximately 20 × | higher levels |

— patent US8709811B2, “Materials and methods for synthesis of a flavor and aroma volatile in plants” (University of Florida Research Foundation, Inc., priority 2003, dated 2014)
